Measurements reported in paper PMC5566498, “SIRT7 antagonizes TGF-β signaling and inhibits breast cancer metastasis” (Nature Communications, 2017).
No constants are given. Whether binding was seen depends on the method and setting. Binding seen in cells or lysates may run through a third protein. Some entries that bind do so weakly or less than the wild type. For part of these data: Tags and fused reporters may be left off the sequences shown. Values belong to the molecule of their own block, whether it stands above or below them.

By UniProt entry, the sequences of proteins in these tests, tags left out. Where a name states a change or a piece, a line headed by the entry shows the natural chain unless it says otherwise.
UniProt Q13485: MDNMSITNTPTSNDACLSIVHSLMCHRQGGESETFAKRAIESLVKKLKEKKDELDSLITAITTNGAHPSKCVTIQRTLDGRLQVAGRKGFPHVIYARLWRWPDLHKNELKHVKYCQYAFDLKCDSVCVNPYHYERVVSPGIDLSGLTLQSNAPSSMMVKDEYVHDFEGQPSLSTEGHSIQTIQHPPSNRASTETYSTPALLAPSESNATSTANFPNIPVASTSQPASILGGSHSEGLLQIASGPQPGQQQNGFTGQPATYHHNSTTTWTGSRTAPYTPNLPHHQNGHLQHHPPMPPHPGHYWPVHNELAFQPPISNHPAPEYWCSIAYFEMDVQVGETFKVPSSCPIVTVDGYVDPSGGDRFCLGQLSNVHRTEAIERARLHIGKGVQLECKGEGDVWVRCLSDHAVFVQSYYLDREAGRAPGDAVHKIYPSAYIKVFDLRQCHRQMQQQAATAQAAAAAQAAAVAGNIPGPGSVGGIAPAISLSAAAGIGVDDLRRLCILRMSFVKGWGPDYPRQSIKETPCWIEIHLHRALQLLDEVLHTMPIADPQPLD
UniProt Q9Y297: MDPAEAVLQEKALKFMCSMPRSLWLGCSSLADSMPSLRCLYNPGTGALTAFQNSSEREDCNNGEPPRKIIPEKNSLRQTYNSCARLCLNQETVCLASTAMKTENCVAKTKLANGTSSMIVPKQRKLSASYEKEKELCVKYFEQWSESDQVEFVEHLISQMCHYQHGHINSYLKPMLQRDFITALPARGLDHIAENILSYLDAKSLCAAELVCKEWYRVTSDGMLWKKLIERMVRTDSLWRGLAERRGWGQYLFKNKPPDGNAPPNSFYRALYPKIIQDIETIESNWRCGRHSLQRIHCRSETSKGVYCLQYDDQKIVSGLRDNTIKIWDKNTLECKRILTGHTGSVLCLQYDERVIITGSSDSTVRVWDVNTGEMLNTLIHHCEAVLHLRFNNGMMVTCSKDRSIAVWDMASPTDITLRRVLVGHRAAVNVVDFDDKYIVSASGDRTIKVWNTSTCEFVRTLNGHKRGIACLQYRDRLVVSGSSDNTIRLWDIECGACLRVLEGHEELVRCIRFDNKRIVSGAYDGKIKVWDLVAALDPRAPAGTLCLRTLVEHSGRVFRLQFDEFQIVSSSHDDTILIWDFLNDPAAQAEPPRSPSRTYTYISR
UniProt Q15796: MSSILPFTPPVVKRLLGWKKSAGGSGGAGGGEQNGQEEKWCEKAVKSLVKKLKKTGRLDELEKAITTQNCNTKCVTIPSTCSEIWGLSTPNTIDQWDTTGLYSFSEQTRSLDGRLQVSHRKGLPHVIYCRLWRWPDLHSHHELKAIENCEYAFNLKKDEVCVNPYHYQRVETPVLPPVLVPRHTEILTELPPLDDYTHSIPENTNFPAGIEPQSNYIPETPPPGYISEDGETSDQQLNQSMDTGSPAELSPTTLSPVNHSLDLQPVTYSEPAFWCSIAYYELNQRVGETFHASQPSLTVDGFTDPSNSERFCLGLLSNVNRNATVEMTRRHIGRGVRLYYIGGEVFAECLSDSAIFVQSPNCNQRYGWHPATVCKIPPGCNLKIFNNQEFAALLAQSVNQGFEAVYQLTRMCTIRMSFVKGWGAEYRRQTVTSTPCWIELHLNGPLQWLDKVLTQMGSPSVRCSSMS
UniProt Q15797: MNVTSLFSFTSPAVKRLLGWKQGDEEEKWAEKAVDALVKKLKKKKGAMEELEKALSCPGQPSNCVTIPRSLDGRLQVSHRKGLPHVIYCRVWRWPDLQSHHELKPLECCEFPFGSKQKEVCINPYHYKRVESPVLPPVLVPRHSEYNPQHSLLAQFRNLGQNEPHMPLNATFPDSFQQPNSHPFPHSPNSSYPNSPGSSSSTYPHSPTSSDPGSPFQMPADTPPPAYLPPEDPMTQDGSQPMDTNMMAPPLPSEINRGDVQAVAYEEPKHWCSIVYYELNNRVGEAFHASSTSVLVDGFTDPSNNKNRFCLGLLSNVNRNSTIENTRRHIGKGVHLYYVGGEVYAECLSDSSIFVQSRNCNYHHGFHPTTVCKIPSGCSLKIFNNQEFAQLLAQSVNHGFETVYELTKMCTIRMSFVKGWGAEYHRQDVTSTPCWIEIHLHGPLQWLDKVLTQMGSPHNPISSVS

Key:
[1] = molecular target: endogenous SMAD4 (human (endogenous in BT549)) (UniProt Q13485); experiment: co-IP; endogenous proteins in BT549 cells; anti-SIRT7 or anti-SMAD4 antibodies; lysis in 200 mM KCl, 20 mM Tris-HCl pH 7.9, 5 mM MgCl2, 10% glycerol, 0.2 mM EDTA, 0.1% NP-40
FLAG-SIRT7 = FLAG-SIRT7 (UniProt Q9NRC8); experiment: co-IP; HEK293 cells expressing ectopic FLAG-SIRT7 and HA-SMADs; anti-HA or anti-FLAG immunoprecipitation, immunoblot; lysis in 200 mM KCl, 20 mM Tris-HCl pH 7.9, 5 mM MgCl2, 10% glycerol, 0.2 mM EDTA, 0.1% NP-40; 4 °C overnight
[2] = molecular target: SIRT7 (as used in Supplementary Figs 7d, 7e and 10g) (UniProt Q9NRC8); experiment: pull-down; Supplementary Fig. 7e: SIRT7, ΔN, ΔC and catalytic domain with SMAD4; the text says only 'pull down'
[3] = molecular target: endogenous SIRT7 (human (endogenous in BT549)) (UniProt Q9NRC8); experiment: co-IP; endogenous proteins in BT549 cells; anti-SIRT7 or anti-SMAD4 antibodies; lysis in 200 mM KCl, 20 mM Tris-HCl pH 7.9, 5 mM MgCl2, 10% glycerol, 0.2 mM EDTA, 0.1% NP-40
Flag-β-TrCP1 = Flag-β-TrCP1 (UniProt Q9Y297); experiment: co-IP; immunoprecipitation of Flag-β-TrCP1 and HA-SMAD4 mutants from transfected cells; immunoblot
HA-SMAD4 = HA-SMAD4 (UniProt Q13485); experiment: co-IP; HEK293 cells expressing ectopic FLAG-SIRT7 and HA-SMADs; anti-HA or anti-FLAG immunoprecipitation, immunoblot; lysis in 200 mM KCl, 20 mM Tris-HCl pH 7.9, 5 mM MgCl2, 10% glycerol, 0.2 mM EDTA, 0.1% NP-40; 4 °C overnight
HA-SMAD2 = HA-SMAD2 (UniProt Q15796); experiment: as above
HA-SMAD1 = HA-SMAD1 (UniProt Q15797); experiment: as above
HA-SMAD3, P84022 = experiment: as above; conditions: remark: other sources report otherwise

binding [1]: binds
Molecule: endogenous SIRT7 (from UniProt Q9NRC8 1-400) (enzyme)

binding (FLAG-SIRT7): binds
Molecule: HA-SMAD4 (from UniProt Q13485 1-552)

binding [2]: binds
Molecule: full-length SMAD4 (as used in Supplementary Figs 7d, 7e, 7f, 8a and 10g) (from UniProt Q13485 1-552)

binding [3]: binds
Molecule: endogenous SMAD4 (from UniProt Q13485 1-552)

binding (Flag-β-TrCP1): binds
Molecule: HA-SMAD4 K428R (from UniProt Q13485 1-552)

binding (HA-SMAD4): binds | binding (HA-SMAD2): no binding | binding (HA-SMAD1): no binding
Molecule: FLAG-SIRT7 (from UniProt Q9NRC8 1-400) (enzyme)

binding (HA-SMAD3, P84022): no binding
B1: GST-SIRT7 (enzyme, UniProt Q9NRC8 1-400, looked up)
chain: MAAGGLSRSERKAAERVRRLREEQQRERLRQVSRILRKAAAERSAEEGRLLAESADLVTELQGRSRRREGLKRRQEEVCDDPEELRGKVRELASAVRNAKYLVVYTGAGISTAASIPDYRGPNGVWTLLQKGRSVSAADLSEAEPTLTHMSITRLHEQKLVQHVVSQNCDGLHLRSGLPRTAISELHGNMYIEVCTSCVPNREYVRVFDVTERTALHRHQTGRTCHKCGTQLRDTIVHFGERGTLGQPLNWEAATEAASRADTILCLGSSLKVLKKYPRLWCMTKPPSRRPKLYIVNLQWTPKDDWAALKLHGKCDDVMRLLMAELGLEIPAYSRWQDPIFSLATPLRAGEEGSHSRKSLCRSREEAPPGDRGAPLSSAPILGGWFGRGCTKRTKRKKVT
notes: SIRT7; also called purified GST-SIRT7; recombinant GST-SIRT7; source: recombinant, purified
